Source: PubChem BioAssay AID2685 (National Center for Advancing Translational Sciences (NCATS), 2010)
This is one part of the list. Further columns of the screen follow, without active or inactive calls. Most of these compounds were active or inconclusive in the main read-out, so they are no random draw. The note in brackets gives the kind of curve behind each potency; many fits are weak.

Experiment: qHTS Assay for Lipid Storage Modulators in Drosophila S3 Cells;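 as to cell number change: cells counted by Cell Tracker Red CMTPX staining in the red channel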
Conditions: BODIPY lipid droplet fluorescence, 18-24 h; for cell number change: measured here: cell count max response, cells fed with added oleic acid
Outline: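 Drosophila S3 cells got compounds at several concentrations plus oleic acid (400 uM solution). Laser-scanning cytometry with 488 nm excitation read lipid droplets at 500-530 nm and cells at 575-640 nm. Percent activity was relative to 20 uM Triacsin C.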

[1] = measured here: lipid fluorescence (Fed channel) AC50, cells fed with added oleic acid
[2] = measured here: cell number channel AC50, cells fed with added oleic acid

| Structure (SMILES) | cell number change [%] | AC50 [1] | AC50 [2] |
| --- | --- | --- | --- |
| COc1cccc(-c2nnc3sc(C4CCCCC4)nn23)c1 | 4.29 | 29.1 µM [rising, partial curve] | – |
| Cn1c(/C=C/c2ccc(Cl)cc2)nc2ccccc2c1=O | 0.275 | 29.1 µM [falling, single point] | – |
| Fc1ccccc1N1CCN(c2cnc3ccccc3n2)CC1 | 38.2 | – | 25.9 µM [rising, single point] |
| CN(Cc1cccc(F)c1)C(=O)c1ccc(NS(=O)(=O)c2ccc3[nH]c(=O)[nH]c3c2)cc1 | 50 | – | 29.1 µM [rising, single point] |
| COC(=O)C1=C(C)NC(C)=C(C(=O)OC)C1C(=O)OCc1nc2cc(C(=O)OC)ccc2c(=O)[nH]1 | 33.9 | – | 23.1 µM [rising, single point] |
| CC(C)c1nnc(NC(=O)C2CCCN(C(=O)Nc3ccc(F)cc3)C2)s1 (configuration not stated) | – | 0.058 µM [falling, partial curve, poor fit] | – |
| CN(C)c1nc(Cl)nc(NCCOc2ccccc2)n1 | – | 5.8 µM [rising, partial curve, poor fit] | 0.0366 µM [rising, full curve, poor fit] |
| Cc1cc(NC(=O)CSc2nccn2-c2ccc(Cl)cc2)no1 | -8.03 | 0.82 µM [falling, single point] | – |
| O=C(Nc1ccc(F)cc1)c1ccccc1NC(=O)C1CC=CCC1C(=O)O (configuration not stated) | 9.07 | – | 0.184 µM [rising, full curve, poor fit] |
| O=C(Nc1nnc(-c2cccnc2)o1)c1ccccc1Cl | 14.4 | – | 6.51 µM [rising, partial curve, poor fit] |
| CCC(C)(C)C1CCc2c(sc(NC(=O)c3ccoc3C)c2C(N)=O)C1 (configuration not stated) | 22.2 | – | 0.092 µM [rising, full curve, poor fit] |
| O=C(NNC(=S)NC(=O)c1ccccc1)c1ccc(O)cc1 | 18 | 5.8 µM [rising, partial curve, poor fit] | 5.8 µM [rising, partial curve, poor fit] |
| OCCNCc1c(OCc2ccc(Cl)cc2)ccc2ccccc12 | -61.4 | 20.6 µM [falling, partial curve] | 23.1 µM [falling, single point] |
| Cc1ccc2nc(COC(=O)CNC(=O)c3ccccc3)cn2c1 | -75 | 25.9 µM [rising, single point] | 29.1 µM [falling, partial curve, poor fit] |
| Cc1ccccc1CN1CCN(C(=O)c2cc(-c3ccncc3)nc3ccccc23)CC1 | -9.19 | 2.31 µM [rising, partial curve, poor fit] | – |

Copied from the list.
COC(=O)C1=C(C)NC(C)=C(C(=O)OC)C1C(=O)OCc1nc2cc(C(=O)OC)ccc2c(=O)[nH]1 – AC50 [2]: 23.1 µM [rising, single point]
O=C(Nc1nnc(-c2cccnc2)o1)c1ccccc1Cl – cell number change [%]: 14.4
